According to doi:10.1101/2020.06.18.159178:
Results are given in words; binding and its absence hold for the method and conditions named. Binding calls can cover weak binding; strength is not graded here. For part of these data: Binding seen in cells or lysates may run through a third protein. For part of these data: Tags and fused reporters may be left off the sequences shown. Values belong to the binder of their own block, whether it stands above or below them.

How the values were obtained:
[1] = target: GFP-CRN83_152 (Phytophthora capsici) (UniProt P0CV73); experiment: co-IP
[2] = target: GFP-Mp64 (Myzus persicae); experiment: co-IP
[3] = target: Myzus persicae effector Mp64, yeast two-hybrid bait (Myzus persicae); experiment: two-hybrid

B1: AtSIZ1-cMyc(10x) (protein, UniProt Q680Q4 1-884)
chain: MDLEANCKEKLSYFRIKELKDVLTQLGLSKQGKKQELVDRILTLLSDEQAARLLSKKNTVAKEAVAKLVDDTYRKMQVSGASDLASKGQVSSDTSNLKVKGEPEDPFQPEIKVRCVCGNSLETDSMIQCEDPRCHVWQHVGCVILPDKPMDGNPPLPESFYCEICRLTRADPFWVTVAHPLSPVRLTATTIPNDGASTMQSVERTFQITRADKDLLAKPEYDVQAWCMLLNDKVLFRMQWPQYADLQVNGVPVRAINRPGGQLLGVNGRDDGPIITSCIRDGVNRISLSGGDVRIFCFGVRLVKRRTLQQVLNLIPEEGKGETFEDALARVRRCIGGGGGDDNADSDSDIEVVADFFGVNLRCPMSGSRIKVAGRFLPCVHMGCFDLDVFVELNQRSRKWQCPICLKNYSVEHVIVDPYFNRITSKMKHCDEEVTEIEVKPDGSWRVKFKRESERRELGELSQWHAPDGSLCPSAVDIKRKMEMLPVKQEGYSDGPAPLKLGIRKNRNGIWEVSKPNTNGLSSSNRQEKVGYQEKNIIPMSSSATGSGRDGDDASVNQDAIGTFDFVANGMELDSISMNVDSGYNFPDRNQSGEGGNNEVIVLSDSDDENDLVITPGPAYSGCQTDGGLTFPLNPPGIINSYNEDPHSIAGGSSGLGLFNDDDEFDTPLWSFPSETPEAPGFQLFRSDADVSGGLVGLHHHSPLNCSPEINGGYTMAPETSMASVPVVPGSTGRSEANDGLVDNPLAFGRDDPSLQIFLPTKPDASAQSGFKNQADMSNGLRSEDWISLRLGDSASGNHGDPATTNGINSSHQMSTREGSMDTTTETASLLLGMNDSRQDKAKKQRSDNPFSFPRQKRSNNEQDHQTRHRSLNKICIILCAGKN
binding [1]: binds weakly
binding [2]: binds

binding [3]: binds
B2: full-length AtSIZ1 (Arabidopsis thaliana SIZ1), yeast two-hybrid prey (protein, UniProt Q680Q4 1-884)
chain: B1 chain
